Measured values: paper PMC6724035 (Pharmaceutics, 2019)
HELM strings list residues between dots; [ac] is acetyl, [am] amide, other brackets name non-standard units.

Assay: general procedure: Fmoc solid-phase peptide synthesis
Conditions: whole synthesis

Substance: PEPTIDE1{Y.[PEG2].[dF].Q.W.A.V.G.H.[Sta].L.[am]}$$$$V2.0
- final purity (method not given) (280 nm): over 95%
- isolated yield (based on the initial loading of the resin): 6.0%
